These are yes or no findings as the source states them, for the method shown. Binding can be weak; no strength is given.

The chains behind the UniProt entries cited, without tags or fusion partners. Where a name states a change or a piece, a line headed by the entry shows the natural chain unless it says otherwise.
UniProt A0R7G5: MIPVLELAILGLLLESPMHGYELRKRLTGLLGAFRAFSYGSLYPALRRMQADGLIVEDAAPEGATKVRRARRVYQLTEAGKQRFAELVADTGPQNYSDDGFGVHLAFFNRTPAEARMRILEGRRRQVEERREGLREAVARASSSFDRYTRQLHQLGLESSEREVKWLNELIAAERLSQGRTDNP
UniProt A0R006: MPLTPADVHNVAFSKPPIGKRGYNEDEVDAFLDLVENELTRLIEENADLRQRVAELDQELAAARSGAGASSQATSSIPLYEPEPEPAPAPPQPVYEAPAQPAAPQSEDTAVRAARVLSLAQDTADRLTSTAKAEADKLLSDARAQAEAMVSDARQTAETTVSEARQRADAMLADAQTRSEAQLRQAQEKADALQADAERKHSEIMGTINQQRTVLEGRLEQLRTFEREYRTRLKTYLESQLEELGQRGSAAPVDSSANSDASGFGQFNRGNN

The target in this test is NapM (Mycobacterium smegmatis), bacterial two-hybrid fusion (Mycobacterium smegmatis) (UniProt A0R7G5). In words: two-hybrid; Bacterial Adenylate Cyclase Two-Hybrid System (BACTH); transformants on LB agar with IPTG, kanamycin, ampicillin and X-gal, 2 days at 30°C.

As for “DivIVA (Mycobacterium smegmatis), bacterial two-hybrid fusion (from UniProt A0R006 1-272)”, the binding result was “binds”.
